Some of the results follow.
Experiments:
Test in all cases: log2 fold change, soluble protein after heating vs DMSO (PISA); higher = thermal stabilisation; K562 cells, 10 uM, 30 min; active = over 0.2 and 3.5 SD of the protein, either way, in both replicates (recomputed)
[1] = compound: CC1=C(C=C(C=C1)NC(=O)C2=CC(=CC=C2)C(C)(C)C#N)NC3=CC4=C(C=C3)N=CN(C4=O)C
Procedure, shortened: (§1)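 Values are thermal stability changes relative to control samples and are taken from duplicates. They are stated as log2 fold changes. Before quantification by TMTpro 16plex LC-MS/MS with equalised channel sums, K562 cells at 2×10^6 cells/mL were treated with 10 μM compound for 30 min, heated in aliquots for 3 min across 48°C-58°C, pooled, extracted in PBS with 0.5% NP-40 at 4°C, and centrifuged at 21,000xg for 90 min to give the soluble supernatant.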

Sequences of proteins named here, by UniProt entry; tags and fusion partners are left off. A change or cut given only in a name is not applied to a line headed by its entry.
UniProt Q8TAE6: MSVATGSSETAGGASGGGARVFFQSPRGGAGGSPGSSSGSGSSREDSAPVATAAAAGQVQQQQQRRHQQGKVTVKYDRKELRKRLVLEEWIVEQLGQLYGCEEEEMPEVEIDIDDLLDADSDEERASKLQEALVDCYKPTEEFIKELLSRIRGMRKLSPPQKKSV
UniProt Q9Y478: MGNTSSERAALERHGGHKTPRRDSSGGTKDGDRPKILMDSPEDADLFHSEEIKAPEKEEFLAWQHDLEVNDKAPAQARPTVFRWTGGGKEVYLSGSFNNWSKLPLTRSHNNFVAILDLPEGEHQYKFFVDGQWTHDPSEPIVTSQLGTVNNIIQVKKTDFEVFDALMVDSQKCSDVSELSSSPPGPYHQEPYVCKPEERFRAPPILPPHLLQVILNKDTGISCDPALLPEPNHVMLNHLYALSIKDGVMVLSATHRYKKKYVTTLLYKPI
UniProt Q96A00: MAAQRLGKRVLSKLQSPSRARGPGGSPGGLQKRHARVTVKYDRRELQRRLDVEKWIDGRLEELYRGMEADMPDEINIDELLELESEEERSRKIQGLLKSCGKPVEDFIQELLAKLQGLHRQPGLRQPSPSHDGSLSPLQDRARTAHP
UniProt P48454, whole entry, looked up: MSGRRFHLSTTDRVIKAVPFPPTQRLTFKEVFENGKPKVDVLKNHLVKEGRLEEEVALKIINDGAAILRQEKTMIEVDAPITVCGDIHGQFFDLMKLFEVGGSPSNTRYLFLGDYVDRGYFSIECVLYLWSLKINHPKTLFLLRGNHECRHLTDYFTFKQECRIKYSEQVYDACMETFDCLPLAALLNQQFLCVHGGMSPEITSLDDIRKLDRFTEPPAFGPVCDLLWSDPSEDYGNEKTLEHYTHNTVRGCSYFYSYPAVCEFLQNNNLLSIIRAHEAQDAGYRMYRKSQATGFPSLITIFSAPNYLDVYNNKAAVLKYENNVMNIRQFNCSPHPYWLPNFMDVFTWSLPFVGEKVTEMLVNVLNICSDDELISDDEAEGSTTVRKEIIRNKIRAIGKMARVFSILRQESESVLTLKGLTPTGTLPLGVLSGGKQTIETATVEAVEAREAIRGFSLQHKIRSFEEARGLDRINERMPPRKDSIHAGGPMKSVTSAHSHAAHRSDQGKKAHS
UniProt P54619: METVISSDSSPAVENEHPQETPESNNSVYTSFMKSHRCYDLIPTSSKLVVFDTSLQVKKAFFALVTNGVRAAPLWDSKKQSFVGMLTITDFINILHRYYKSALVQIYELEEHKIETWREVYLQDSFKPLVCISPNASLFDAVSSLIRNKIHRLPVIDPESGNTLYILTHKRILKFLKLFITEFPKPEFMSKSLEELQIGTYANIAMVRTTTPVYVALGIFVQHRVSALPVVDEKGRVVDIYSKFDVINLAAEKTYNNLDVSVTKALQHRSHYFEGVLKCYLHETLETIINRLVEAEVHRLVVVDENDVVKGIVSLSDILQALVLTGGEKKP
UniProt Q9NR22, whole entry, looked up: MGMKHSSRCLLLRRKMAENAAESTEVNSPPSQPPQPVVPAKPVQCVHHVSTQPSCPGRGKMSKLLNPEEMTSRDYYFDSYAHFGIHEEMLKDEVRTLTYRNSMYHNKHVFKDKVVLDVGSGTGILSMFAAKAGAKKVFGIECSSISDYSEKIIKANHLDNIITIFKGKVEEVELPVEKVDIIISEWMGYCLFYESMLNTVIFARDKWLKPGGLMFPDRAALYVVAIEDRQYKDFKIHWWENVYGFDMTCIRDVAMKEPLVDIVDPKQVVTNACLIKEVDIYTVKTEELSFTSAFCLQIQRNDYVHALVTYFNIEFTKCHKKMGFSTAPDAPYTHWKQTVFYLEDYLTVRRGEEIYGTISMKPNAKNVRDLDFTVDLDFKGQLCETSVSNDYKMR
UniProt Q9Y6M0: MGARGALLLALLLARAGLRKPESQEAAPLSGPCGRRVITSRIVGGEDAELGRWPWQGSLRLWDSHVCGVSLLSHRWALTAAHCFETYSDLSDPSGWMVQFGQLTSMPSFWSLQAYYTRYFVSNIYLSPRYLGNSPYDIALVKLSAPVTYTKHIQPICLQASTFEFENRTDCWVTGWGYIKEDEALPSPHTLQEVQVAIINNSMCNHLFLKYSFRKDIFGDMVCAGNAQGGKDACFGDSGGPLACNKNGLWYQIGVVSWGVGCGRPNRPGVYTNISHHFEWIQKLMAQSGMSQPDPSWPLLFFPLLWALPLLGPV
UniProt P31321, whole entry, looked up: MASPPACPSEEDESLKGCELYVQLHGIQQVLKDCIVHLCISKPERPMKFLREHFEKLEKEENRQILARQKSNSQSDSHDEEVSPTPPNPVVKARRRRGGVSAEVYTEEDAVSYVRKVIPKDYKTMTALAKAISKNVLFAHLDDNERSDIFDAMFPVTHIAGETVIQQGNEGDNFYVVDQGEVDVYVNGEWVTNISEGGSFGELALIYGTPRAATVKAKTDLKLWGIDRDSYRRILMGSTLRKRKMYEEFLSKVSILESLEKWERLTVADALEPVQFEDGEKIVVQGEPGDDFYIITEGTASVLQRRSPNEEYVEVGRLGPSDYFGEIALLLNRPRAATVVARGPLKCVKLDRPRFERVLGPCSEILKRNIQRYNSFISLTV
UniProt Q6P2P2: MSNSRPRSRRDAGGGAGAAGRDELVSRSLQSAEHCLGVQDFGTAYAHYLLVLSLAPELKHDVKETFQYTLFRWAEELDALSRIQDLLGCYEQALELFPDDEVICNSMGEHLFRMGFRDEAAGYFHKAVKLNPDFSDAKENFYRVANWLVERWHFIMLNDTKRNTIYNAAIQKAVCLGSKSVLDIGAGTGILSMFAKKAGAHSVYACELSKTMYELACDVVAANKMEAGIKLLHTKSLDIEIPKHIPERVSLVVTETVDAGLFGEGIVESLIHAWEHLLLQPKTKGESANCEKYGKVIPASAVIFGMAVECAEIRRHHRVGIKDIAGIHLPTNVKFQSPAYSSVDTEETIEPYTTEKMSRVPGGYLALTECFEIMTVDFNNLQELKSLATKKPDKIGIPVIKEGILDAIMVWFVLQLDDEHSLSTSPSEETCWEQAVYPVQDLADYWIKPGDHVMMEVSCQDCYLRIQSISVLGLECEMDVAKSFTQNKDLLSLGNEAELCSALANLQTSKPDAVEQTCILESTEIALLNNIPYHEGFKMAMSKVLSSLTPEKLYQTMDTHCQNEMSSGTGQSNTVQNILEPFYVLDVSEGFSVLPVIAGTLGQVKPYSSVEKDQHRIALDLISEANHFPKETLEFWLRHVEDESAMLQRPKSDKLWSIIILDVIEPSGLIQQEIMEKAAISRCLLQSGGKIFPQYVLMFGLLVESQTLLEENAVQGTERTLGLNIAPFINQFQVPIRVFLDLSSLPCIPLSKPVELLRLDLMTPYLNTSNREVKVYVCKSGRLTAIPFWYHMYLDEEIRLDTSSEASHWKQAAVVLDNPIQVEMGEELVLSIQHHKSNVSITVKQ
UniProt Q9Y570: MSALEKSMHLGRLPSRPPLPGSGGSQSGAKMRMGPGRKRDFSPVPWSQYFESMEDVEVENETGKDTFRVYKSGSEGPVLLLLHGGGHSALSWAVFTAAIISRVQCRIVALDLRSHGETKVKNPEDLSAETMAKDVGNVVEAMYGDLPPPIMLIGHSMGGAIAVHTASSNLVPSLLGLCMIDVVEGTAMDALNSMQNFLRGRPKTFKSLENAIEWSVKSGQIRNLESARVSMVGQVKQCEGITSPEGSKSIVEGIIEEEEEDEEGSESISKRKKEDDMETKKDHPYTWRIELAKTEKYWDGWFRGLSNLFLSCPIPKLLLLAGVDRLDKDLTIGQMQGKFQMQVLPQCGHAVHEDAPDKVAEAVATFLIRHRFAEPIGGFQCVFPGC
UniProt P63098, whole entry, looked up: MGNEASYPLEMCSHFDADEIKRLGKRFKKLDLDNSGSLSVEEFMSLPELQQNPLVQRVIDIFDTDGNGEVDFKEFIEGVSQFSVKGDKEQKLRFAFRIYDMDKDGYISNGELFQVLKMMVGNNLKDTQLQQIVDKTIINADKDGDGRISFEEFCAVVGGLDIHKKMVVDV
UniProt K7ELL7: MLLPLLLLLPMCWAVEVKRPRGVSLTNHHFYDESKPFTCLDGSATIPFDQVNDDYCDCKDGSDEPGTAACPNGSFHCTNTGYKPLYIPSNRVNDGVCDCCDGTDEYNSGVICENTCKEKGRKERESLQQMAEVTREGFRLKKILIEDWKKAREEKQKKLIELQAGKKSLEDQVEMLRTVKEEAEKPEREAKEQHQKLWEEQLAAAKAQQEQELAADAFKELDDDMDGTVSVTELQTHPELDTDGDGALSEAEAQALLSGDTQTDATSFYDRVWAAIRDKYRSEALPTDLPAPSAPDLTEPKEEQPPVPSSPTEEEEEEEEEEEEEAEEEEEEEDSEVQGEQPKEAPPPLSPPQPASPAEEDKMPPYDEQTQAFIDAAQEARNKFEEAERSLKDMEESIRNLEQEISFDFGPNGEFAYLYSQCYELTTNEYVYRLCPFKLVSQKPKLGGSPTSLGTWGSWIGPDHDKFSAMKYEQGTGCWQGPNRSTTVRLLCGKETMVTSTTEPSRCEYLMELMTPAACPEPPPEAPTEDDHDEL
UniProt Q13362, whole entry, looked up: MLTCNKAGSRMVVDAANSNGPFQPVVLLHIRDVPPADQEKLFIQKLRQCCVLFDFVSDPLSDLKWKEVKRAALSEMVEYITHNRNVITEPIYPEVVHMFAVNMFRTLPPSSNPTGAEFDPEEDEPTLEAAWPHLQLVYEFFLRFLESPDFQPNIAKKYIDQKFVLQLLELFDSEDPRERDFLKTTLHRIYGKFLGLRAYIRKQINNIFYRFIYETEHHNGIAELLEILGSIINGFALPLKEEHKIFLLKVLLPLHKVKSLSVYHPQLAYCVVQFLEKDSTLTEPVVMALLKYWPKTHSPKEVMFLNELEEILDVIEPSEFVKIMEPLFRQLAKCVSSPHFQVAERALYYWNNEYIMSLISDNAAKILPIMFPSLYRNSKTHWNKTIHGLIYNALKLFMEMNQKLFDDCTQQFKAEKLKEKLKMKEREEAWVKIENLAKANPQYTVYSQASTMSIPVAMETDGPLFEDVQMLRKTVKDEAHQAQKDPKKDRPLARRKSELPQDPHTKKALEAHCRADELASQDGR
UniProt P62714, whole entry, looked up: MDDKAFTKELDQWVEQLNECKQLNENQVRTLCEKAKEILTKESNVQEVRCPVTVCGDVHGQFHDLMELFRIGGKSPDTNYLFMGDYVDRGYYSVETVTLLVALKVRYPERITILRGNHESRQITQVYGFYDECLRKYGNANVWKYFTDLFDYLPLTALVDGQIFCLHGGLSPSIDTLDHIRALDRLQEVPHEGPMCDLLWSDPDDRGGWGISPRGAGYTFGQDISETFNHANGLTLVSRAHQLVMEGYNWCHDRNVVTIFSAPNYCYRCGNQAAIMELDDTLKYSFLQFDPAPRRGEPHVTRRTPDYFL
UniProt P07225: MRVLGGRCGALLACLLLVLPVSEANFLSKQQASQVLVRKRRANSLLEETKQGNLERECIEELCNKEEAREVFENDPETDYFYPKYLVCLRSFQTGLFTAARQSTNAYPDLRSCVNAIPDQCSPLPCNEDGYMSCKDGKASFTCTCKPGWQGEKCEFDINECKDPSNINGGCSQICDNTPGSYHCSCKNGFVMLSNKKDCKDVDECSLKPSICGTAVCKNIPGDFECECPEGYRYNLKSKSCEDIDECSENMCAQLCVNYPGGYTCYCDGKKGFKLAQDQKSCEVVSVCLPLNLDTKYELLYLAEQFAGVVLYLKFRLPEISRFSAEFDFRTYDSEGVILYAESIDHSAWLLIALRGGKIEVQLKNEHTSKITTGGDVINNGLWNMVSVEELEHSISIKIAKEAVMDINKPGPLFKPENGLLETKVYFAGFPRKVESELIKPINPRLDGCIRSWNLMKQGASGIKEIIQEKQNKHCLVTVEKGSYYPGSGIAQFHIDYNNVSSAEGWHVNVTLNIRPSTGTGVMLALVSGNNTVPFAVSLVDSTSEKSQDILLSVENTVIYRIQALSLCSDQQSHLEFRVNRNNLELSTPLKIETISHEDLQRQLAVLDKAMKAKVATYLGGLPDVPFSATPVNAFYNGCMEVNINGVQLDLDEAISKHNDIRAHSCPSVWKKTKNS
UniProt O43663: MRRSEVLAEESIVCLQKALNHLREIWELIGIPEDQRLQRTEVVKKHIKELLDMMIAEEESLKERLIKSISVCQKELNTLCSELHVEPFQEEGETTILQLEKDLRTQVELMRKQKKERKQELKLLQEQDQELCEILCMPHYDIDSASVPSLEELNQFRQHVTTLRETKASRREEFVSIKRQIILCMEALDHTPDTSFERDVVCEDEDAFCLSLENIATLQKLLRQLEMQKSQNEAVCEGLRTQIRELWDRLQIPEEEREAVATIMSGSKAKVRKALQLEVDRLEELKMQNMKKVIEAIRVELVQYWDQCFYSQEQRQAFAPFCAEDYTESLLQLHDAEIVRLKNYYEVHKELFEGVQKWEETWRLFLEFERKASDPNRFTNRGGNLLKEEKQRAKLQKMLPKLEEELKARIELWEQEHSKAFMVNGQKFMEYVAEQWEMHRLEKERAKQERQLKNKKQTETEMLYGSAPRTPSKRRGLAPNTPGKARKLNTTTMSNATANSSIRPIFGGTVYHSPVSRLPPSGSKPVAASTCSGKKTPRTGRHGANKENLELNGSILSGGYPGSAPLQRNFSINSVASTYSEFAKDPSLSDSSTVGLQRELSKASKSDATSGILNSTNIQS

[2] = compound: CC1=C(C=C(C=C1)NC(=O)C2=CC(=CC=C2)N(C)C)NC(=O)C3=CC=C(C=C3)O
Procedure, shortened: as §1

[3] = compound: CC1=CC=C(C=C1)SC2=C3C=C(SC3=CN=C2)C(=O)N
Procedure, shortened: as §1

[4] = compound: CC1=NC(=CC=C1)C2=C(N=C(N2)C(C)(C)C)C3=CC4=NC=CN=C4C=C3
Procedure, shortened: as §1

Nexturastat A = compound: CCCCN(Cc1ccc(C(=O)NO)cc1)C(=O)Nc1ccccc1 [Nexturastat A]
Procedure, shortened: as §1

vemurafenib = compound: CCCS(=O)(=O)Nc1ccc(F)c(C(=O)c2c[nH]c3ncc(-c4ccc(Cl)cc4)cc23)c1F [vemurafenib]
Procedure, shortened: as §1

[5] = compound: CCCS(=O)(=O)Nc1ccc(F)c(C(=O)c2c[nH]c3ncc(Cl)cc23)c1F
Procedure, shortened: as §1

[6] = compound: CCCc1cc(C)[nH]c(=O)c1CNC(=O)c1cc(-c2ccnc(N3CCN(C)CC3)c2)cc2c1cnn2C(C)C
Procedure, shortened: as §1

givinostat = compound: CCN(CC)Cc1ccc2cc(COC(=O)Nc3ccc(C(=O)NO)cc3)ccc2c1 [givinostat]
Procedure, shortened: as §1

barasertib = compound: CCN(CCCOc1ccc2c(Nc3cc(CC(=O)Nc4cccc(F)c4)[nH]n3)ncnc2c1)CCOP(=O)(O)O [barasertib]
Procedure, shortened: as §1

Measured: log2 fold change

PRKCSH (UniProt P14314)
inactive: [1] 0.01 | [2] 0.03 | [3] 0.032 | [4] 0.046 | Nexturastat A 0.02 | vemurafenib 0.008 | [5] 0.005 | [6] -0.015 | givinostat -0.011 | barasertib -0.005

PPP1R14C (UniProt Q8TAE6)
inactive: [1] -0.078 | [2] 0.167 | [3] -0.084 | [4] 0.108 | Nexturastat A 0.145 | vemurafenib -0.057 | [5] -0.328 | [6] -0.046 | givinostat -0.009 | barasertib -0.017

PRKAR1A (UniProt P10644)
inactive: [1] 0.15 | [2] -0.051 | [3] 0.059 | [4] -0.103 | Nexturastat A 0.053 | vemurafenib -0.028 | [5] -0.085 | [6] 0.203 | givinostat 0.055 | barasertib -0.01

PRPF40A (UniProt O75400)
inactive: [1] 0.016 | [2] 0 | [3] 0.022 | [4] 0.018 | Nexturastat A -0.051 | vemurafenib 0.109 | [5] 0.02 | [6] 0.073 | givinostat 0.156 | barasertib 0

PPT2 isoform 3 (UniProt Q9UMR5)
inactive: [1] -0.064 | [2] -0.002 | [3] 0.025 | [4] 0.078 | Nexturastat A 0 | vemurafenib -0.001 | [5] 0.052 | [6] 0.002 | givinostat 0.041 | barasertib -0.017

PRKAB1 (UniProt Q9Y478)
inactive: [1] -0.055 | [2] 0.026 | [3] 0.022 | [4] 0.01 | Nexturastat A -0.002 | vemurafenib 0.031 | [5] 0.017 | [6] 0.109 | givinostat 0.08 | barasertib 0.026

PRKCG (UniProt P05129)
inactive: [1] 0.085 | [2] -0.117 | [3] -0.058 | [4] 0.021 | Nexturastat A -0.08 | vemurafenib -0.041 | [5] 0.034 | [6] 0.019 | givinostat -0.316 | barasertib -0.094

PPP1R14A (UniProt Q96A00)
inactive: [1] -0.002 | [2] -0.04 | [3] 0.004 | [4] 0.051 | Nexturastat A -0.006 | vemurafenib -0.005 | [5] -0.054 | [6] 0.062 | givinostat -0.004 | barasertib 0.013

PRPF4B (UniProt Q13523)
inactive: [1] -0.024 | [2] 0.018 | [3] -0.079 | [4] -0.082 | Nexturastat A 0.158 | vemurafenib 0.052 | [5] 0.03 | [6] -0.098 | givinostat 0.082 | barasertib -0.05

PPP3CC isoform 3 (UniProt P48454)
inactive: [1] -0.015 | [2] 0.035 | [3] 0.035 | [4] 0.055 | Nexturastat A -0.053 | vemurafenib 0.048 | [5] 0.002 | [6] 0.014 | givinostat 0.022 | barasertib -0.024

PPM1E (UniProt Q8WY54)
inactive: [1] 0.039 | [2] -0.006 | [3] -0.006 | [4] -0.104 | Nexturastat A 0.075 | vemurafenib 0.014 | [5] -0.006 | [6] -0.047 | givinostat -0.014 | barasertib 0.017

PPP5C (UniProt P53041)
inactive: [1] -0.038 | [2] -0.032 | [3] 0.014 | [4] 0.005 | Nexturastat A -0.042 | vemurafenib 0.029 | [5] 0.064 | [6] -0.014 | givinostat -0.109 | barasertib 0.013

PRKAG1 isoform 3 (UniProt P54619)
inactive: [1] -0.042 | [2] -0.006 | [3] 0.007 | [4] 0.037 | Nexturastat A -0.01 | vemurafenib 0.026 | [5] 0.002 | [6] -0.026 | givinostat 0.014 | barasertib 0.013

PRMT8 (UniProt Q9NR22)
inactive: [1] 0.285 | [2] -0.033 | [3] 0.097 | [4] 0.016 | Nexturastat A -0.125 | vemurafenib 0.028 | [5] 0.156 | [6] -0.009 | givinostat -0.043 | barasertib 0.031

PRSS21 (UniProt Q9Y6M0)
inactive: [1] -0.041 | [2] -0.03 | [3] 0.019 | [4] 0.056 | Nexturastat A -0.016 | vemurafenib -0.038 | [5] -0.029 | [6] 0.008 | givinostat -0.003 | barasertib -0.027

PPWD1 (UniProt Q96BP3)
inactive: [1] 0.015 | [2] -0.027 | [3] -0.025 | [4] 0.007 | Nexturastat A -0.023 | vemurafenib -0.001 | [5] -0.002 | [6] 0.006 | givinostat 0.008 | barasertib 0.02

PRKAR1B (UniProt P31321)
inactive: [1] 0.102 | [2] -0.019 | [3] 0.004 | [4] -0.057 | Nexturastat A 0.015 | vemurafenib 0.04 | [5] -0.038 | [6] 0.133 | givinostat -0.036 | barasertib -0.12

PRMT9 (UniProt Q6P2P2)
inactive: [1] -0.051 | [2] 0 | [3] 0.028 | [4] -0.004 | Nexturastat A -0.19 | vemurafenib 0.007 | [5] 0.059 | [6] -0.033 | givinostat 0.001 | barasertib 0.203

PPME1 (UniProt Q9Y570)
inactive: [1] -0.007 | [2] -0.008 | [3] 0.012 | [4] 0.033 | Nexturastat A -0.062 | vemurafenib 0.006 | [5] 0.057 | [6] -0.019 | givinostat -0.019 | barasertib 0.008

PPP6R2 isoform 5 (UniProt O75170)
inactive: [1] 0.018 | [2] 0.036 | [3] 0.021 | [4] -0.015 | Nexturastat A -0.042 | vemurafenib 0.054 | [5] 0.008 | [6] -0.089 | givinostat 0.018 | barasertib -0.004

PPP4R3A (UniProt Q6IN85)
inactive: [1] -0.105 | [2] -0.033 | [3] 0.01 | [4] 0.007 | Nexturastat A -0.041 | vemurafenib -0.004 | [5] 0.005 | [6] -0.066 | givinostat 0.022 | barasertib 0.047

PRPF3 (UniProt O43395)
inactive: [1] 0.05 | [2] -0.025 | [3] 0.038 | [4] 0.117 | Nexturastat A -0.087 | vemurafenib 0.1 | [5] 0.081 | [6] -0.005 | givinostat 0.086 | barasertib 0.028

PRRC2C isoform 7 (UniProt Q9Y520)
inactive: [1] -0.02 | [2] 0.009 | [3] -0.059 | [4] -0.079 | Nexturastat A 0.159 | vemurafenib -0.084 | [5] -0.076 | [6] 0.085 | givinostat 0.018 | barasertib -0.096

PRPSAP1 isoform 2 (UniProt Q14558)
inactive: [1] 0.026 | [2] 0.007 | [3] -0.039 | [4] 0.01 | Nexturastat A 0.021 | vemurafenib -0.048 | [5] -0.008 | [6] 0.041 | givinostat -0.016 | barasertib 0.009

PPP3R1 (UniProt P63098)
inactive: [1] -0.084 | [2] -0.017 | [3] 0.02 | [4] 0.049 | Nexturastat A -0.033 | vemurafenib 0.033 | [5] 0.016 | [6] 0.032 | givinostat 0.029 | barasertib -0.013

PRKCSH (UniProt K7ELL7)
inactive: [1] -0.031 | [2] 0.045 | [3] 0.057 | [4] -0.024 | Nexturastat A 0.019 | vemurafenib 0.003 | [5] 0.028 | [6] -0.284 | givinostat 0.159 | barasertib -0.042

PPP2R5C isoform 5 (UniProt Q13362)
inactive: [1] 0.001 | [2] -0.045 | [3] 0.012 | [4] 0.052 | Nexturastat A -0.171 | vemurafenib 0.066 | [5] 0.038 | [6] 0.032 | givinostat 0.059 | barasertib 0.018

2 records picked at random from those above, as already listed:
PRPSAP1 isoform 2 (UniProt Q14558)
inactive: [1] 0.026 | [2] 0.007 | [3] -0.039 | [4] 0.01 | Nexturastat A 0.021 | vemurafenib -0.048 | [5] -0.008 | [6] 0.041 | givinostat -0.016 | barasertib 0.009

PRRC2C isoform 7 (UniProt Q9Y520)
inactive: [1] -0.02 | [2] 0.009 | [3] -0.059 | [4] -0.079 | Nexturastat A 0.159 | vemurafenib -0.084 | [5] -0.076 | [6] 0.085 | givinostat 0.018 | barasertib -0.096

The listing continues.

PPP2CB (UniProt P62714)
inactive: [1] 0.006 | [2] 0.006 | [3] -0.01 | [4] 0 | Nexturastat A -0.011 | vemurafenib 0.006 | [5] -0.012 | [6] -0.016 | givinostat -0.057 | barasertib 0.004

PROS1 (UniProt P07225)
inactive: [1] -0.119 | [2] -0.006 | [3] 0.008 | [4] -0.013 | Nexturastat A 0.092 | vemurafenib 0.017 | [5] -0.055 | [6] -0.155 | givinostat -0.005 | barasertib 0.014

PRC1 (UniProt O43663)
inactive: [1] 0.016
